Assay results taken from the RNAGym collection of RNA variant scans (doi:10.1126/science.aae0568).
This sample is rich in variants without activity.

B1: tRNA (parent)
chain: GUUCCGUUGGCGUAAUGGUAACGCGUCUCCCUCCUAAGGAGAAGACUGCGGGUUCGAGUCCCGUACGGAACG

Variants of: B1
Experiment: yeast fitness relative to wild type (ratio to wild type); higher = fitter; tRNA-Arg(CCU), competitive growth, 37 C, YPD
How it was run: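 Start and end populations of a pooled competition were compared by 100-nucleotide paired-end sequencing of gene amplicons. The Saccharomyces cerevisiae strains carried tRNA-Arg(CCU) gene variants at the native genomic locus, synthesised with a 3% per-site mutation rate at 69 sites, and competed in YPD at 37°C for 24 hours in six parallel replicates. Darwinian fitness relative to wild type was based on the change in genotype frequencies. Genotypes required ≥ 100 starting reads, and estimates < 0.5 were set to 0.5.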
For C24G C31U U59C, the yeast fitness was ≤ 0.5. With C24G C33U C55A A65C the yeast fitness was ≤ 0.5. In the case of C24G C34U A36C C66U, the yeast fitness is reported as ≤ 0.5. For C24G C49U C61A A70U, the yeast fitness was ≤ 0.5. In the case of C24G C55U G67C, the yeast fitness is reported as ≤ 0.5. In the case of C24G C60U A70C, the yeast fitness is reported as ≤ 0.5. With C24G G25A A43G the yeast fitness was ≤ 0.5. For C24G G25C C30G U32C, the yeast fitness was ≤ 0.5. C24G G41C G68C gave a yeast fitness of 0.592. With C24G G50A G52A C66U the yeast fitness was ≤ 0.5. With C24G G50C A70G the yeast fitness was ≤ 0.5. For C24G U26A C29G U32A, the yeast fitness was 0.516. With C24G U26A G41C the yeast fitness was ≤ 0.5. With C24G U32C A37C the yeast fitness was ≤ 0.5. With C24G U32C C49G G67A A69C the yeast fitness was ≤ 0.5. In the case of C24G U35G C62U, the yeast fitness is reported as ≤ 0.5. In the case of C24G U54C G67C, the yeast fitness is reported as ≤ 0.5. For C24G U59A A70U, the yeast fitness was ≤ 0.5. With C24U A37G G39A G48C the yeast fitness was ≤ 0.5. With C24U A37G G63C C66U A70C the yeast fitness was ≤ 0.5. With C24U A43C G51U the yeast fitness was ≤ 0.5. For C24U A45C C55U G67C, the yeast fitness was ≤ 0.5. For C24U A57U C61U, the yeast fitness was ≤ 0.5. Work on C24U A65C yielded a yeast fitness of 0.739. For C24U C27A G50U, the yeast fitness was ≤ 0.5. With C24U C27U U53G C60A A70G the yeast fitness was ≤ 0.5. In the case of C24U C29U C30G C31U C60G G67A, the yeast fitness is reported as ≤ 0.5. With C24U C29U C30G C60G G67A the yeast fitness was ≤ 0.5. Work on C24U C30A G50A yielded a yeast fitness of 0.587. For C24U C30G A45C A70C, the yeast fitness was ≤ 0.5. In the case of C24U C31A C33A C34U C46A G67A, the yeast fitness is reported as ≤ 0.5. Variant C24U C31A U54C A57U has a yeast fitness of 0.547. With C24U C31U C34U A36C G39A G41C the yeast fitness was ≤ 0.5. In the case of C24U C33G U47G C66U, the yeast fitness is reported as ≤ 0.5. With C24U C33U C34G A40U the yeast fitness was ≤ 0.5. In the case of C24U C34A C55G, the yeast fitness is reported as ≤ 0.5. In the case of C24U C34U G52A G58A, the yeast fitness is reported as ≤ 0.5. With C24U C55G C61G G68A the yeast fitness was ≤ 0.5. In the case of C24U G25C C30U, the yeast fitness is reported as ≤ 0.5. For C24U G25C C31A C33G, the yeast fitness was ≤ 0.5. For C24U G39A G44C C61A G63C, the yeast fitness was ≤ 0.5. In the case of C24U G39C U54A, the yeast fitness is reported as ≤ 0.5. With C24U G48A G51A the yeast fitness was 0.665. With C24U G48C G50A C61G the yeast fitness was ≤ 0.5. In the case of C24U U28C C62G, the yeast fitness is reported as ≤ 0.5. For C24U U28C G56A C62G, the yeast fitness was ≤ 0.5. In the case of C24U U32A C33G C49U U53A C66U A70U, the yeast fitness is reported as ≤ 0.5. For C24U U53A C66A, the yeast fitness was ≤ 0.5. For C24U U59A A65U, the yeast fitness was ≤ 0.5. In the case of C24U U59A A69C, the yeast fitness is reported as ≤ 0.5. In the case of G25A A36C G44U, the yeast fitness is reported as ≤ 0.5. In the case of G25A A36U C46A, the yeast fitness is reported as ≤ 0.5. In the case of G25A A40C G51C, the yeast fitness is reported as ≤ 0.5. For G25A A42U A57G, the yeast fitness was ≤ 0.5. With G25A A43U G56A G68C the yeast fitness was ≤ 0.5. In the case of G25A C29G A43C C61A, the yeast fitness is reported as ≤ 0.5. In the case of G25A C29G A43C C61A A69U, the yeast fitness is reported as ≤ 0.5. With G25A C29G C30U C33G G67U the yeast fitness was ≤ 0.5. With G25A C29U A42C G48C the yeast fitness was ≤ 0.5. In the case of G25A C31A C33G C46U, the yeast fitness is reported as ≤ 0.5. Variant G25A C31A G44C has a yeast fitness of 0.597. With G25A C31U C34U A57C the yeast fitness was ≤ 0.5. In the case of G25A C31U G38C C49U C62U A69U, the yeast fitness is reported as ≤ 0.5. With G25A C33G G41C C61G A65U the yeast fitness was ≤ 0.5. With G25A C46A G52C G68A the yeast fitness was ≤ 0.5. With G25A C49A G68C the yeast fitness was ≤ 0.5. Variant G25A C49U C55U has a yeast fitness of 0.683. With G25A C55G G58A the yeast fitness was ≤ 0.5. For G25A C60A A69G, the yeast fitness was ≤ 0.5. In the case of G25A C60G C61U, the yeast fitness is reported as ≤ 0.5. With G25A C60G C66U A70U the yeast fitness was ≤ 0.5. For G25A G44C G52A C62G A69G, the yeast fitness was ≤ 0.5. G25A G50C U54C showed a yeast fitness of 0.627. In the case of G25A G51C U53C, the yeast fitness is reported as ≤ 0.5. For G25A G56C, the yeast fitness was 0.711. G25A G58C A65G showed a yeast fitness of 1.04. G25A U53A showed a yeast fitness of 0.741. For G25A U53A C66U, the yeast fitness was ≤ 0.5. In the case of G25C A57C C60A, the yeast fitness is reported as ≤ 0.5. With G25C C27A C66U the yeast fitness was ≤ 0.5. For G25C C27G, the yeast fitness was 0.553. With G25C C27G A57G the yeast fitness was ≤ 0.5. In the case of G25C C29A A70U, the yeast fitness is reported as ≤ 0.5. In the case of G25C C29A U32A, the yeast fitness is reported as ≤ 0.5. In the case of G25C C29G A43G C46U C49G, the yeast fitness is reported as ≤ 0.5. In the case of G25C C29G G52A, the yeast fitness is reported as ≤ 0.5. With G25C C29U A42U C61U the yeast fitness was ≤ 0.5. In the case of G25C C29U A45C G58A, the yeast fitness is reported as ≤ 0.5. For G25C C29U C30U A40C, the yeast fitness was ≤ 0.5. For G25C C29U G68U A70C, the yeast fitness was ≤ 0.5. G25C C31U A69U showed a yeast fitness of 0.77. With G25C C33A G50C U54C the yeast fitness was ≤ 0.5. In the case of G25C C33G G44C, the yeast fitness is reported as ≤ 0.5. For G25C C34A U35C, the yeast fitness was ≤ 0.5. With G25C C34G A57G the yeast fitness was ≤ 0.5. For G25C C34G C61U, the yeast fitness was ≤ 0.5. In the case of G25C C46A U59A C61A, the yeast fitness is reported as ≤ 0.5. Variant G25C C55U A69U has a yeast fitness of 0.609. With G25C C60A C62G the yeast fitness was ≤ 0.5. G25C G51A gave a yeast fitness of 1.01. With G25C G58C A65U the yeast fitness was 0.928. Work on G25C G63A yielded a yeast fitness of 0.955. In the case of G25C U28G A42C C61U, the yeast fitness is reported as ≤ 0.5. For G25C U35A C60G G67A, the yeast fitness was ≤ 0.5. With G25C U53A A57U A65U the yeast fitness was ≤ 0.5. For G25C U53A C61A, the yeast fitness was ≤ 0.5. In the case of G25U A36U G67C, the yeast fitness is reported as ≤ 0.5. In the case of U26A A40C U54A, the yeast fitness is reported as ≤ 0.5. In the case of U26A A40C U64A A70G, the yeast fitness is reported as ≤ 0.5. With U26A A43G A69C the yeast fitness was 0.649. In the case of U26A C27A C31U, the yeast fitness is reported as ≤ 0.5. With U26A C27A U28A C34U the yeast fitness was ≤ 0.5. For U26A C30A A36U G52A, the yeast fitness was ≤ 0.5. For U26A C30U C62A A65U, the yeast fitness was ≤ 0.5. For U26A C31A A42G C49U C55G, the yeast fitness was ≤ 0.5. U26A C31U A57G showed a yeast fitness of 0.742. In the case of U26A C33G C46U C55G C66A, the yeast fitness is reported as ≤ 0.5. In the case of U26A C49A A65U, the yeast fitness is reported as ≤ 0.5. Work on U26A C55U yielded a yeast fitness of 0.65. With U26A G39C G51C the yeast fitness was ≤ 0.5. For U26A G41A A43C A57G, the yeast fitness was ≤ 0.5. In the case of U26A U28A C30G U35C A45U, the yeast fitness is reported as ≤ 0.5. For U26A U47A C66U, the yeast fitness was ≤ 0.5. With U26C A37C C66G the yeast fitness was ≤ 0.5. In the case of U26C A37G C55A, the yeast fitness is reported as ≤ 0.5. In the case of U26C A42G G67U, the yeast fitness is reported as 0.647. For U26C A42U, the yeast fitness was 1.01. For U26C A45G, the yeast fitness was 0.966. With U26C A57U G68A the yeast fitness was ≤ 0.5. With U26C C27U C31G A43C the yeast fitness was ≤ 0.5. In the case of U26C C29A A36C, the yeast fitness is reported as ≤ 0.5. For U26C C29U C60A, the yeast fitness was ≤ 0.5. For U26C C30G A45U U53A C62U G68C, the yeast fitness was ≤ 0.5. In the case of U26C C31A G41A, the yeast fitness is reported as ≤ 0.5. With U26C C31U C33U G67A the yeast fitness was ≤ 0.5. With U26C C31U U35C A57G the yeast fitness was ≤ 0.5. Variant U26C C33G A42C C49G G58C C62G has a yeast fitness of 0.616. Work on U26C C60A yielded a yeast fitness of 0.572. For U26C G58C G63C, the yeast fitness was ≤ 0.5. In the case of U26C U28A C30U A65U, the yeast fitness is reported as ≤ 0.5. In the case of U26C U28A C61A, the yeast fitness is reported as ≤ 0.5. With U26C U35C A37U U54G G63C the yeast fitness was ≤ 0.5. Variant U26C U35G has a yeast fitness of 0.615. With U26C U53A G68C the yeast fitness was ≤ 0.5. In the case of U26G A37U G58A, the yeast fitness is reported as ≤ 0.5. In the case of U26G A42U A45C G51C, the yeast fitness is reported as ≤ 0.5. With U26G A57U C66U the yeast fitness was ≤ 0.5. With U26G C27G C33U G39C C49U C66U the yeast fitness was ≤ 0.5. In the case of U26G C27G C33U G39C U47C C49U, the yeast fitness is reported as ≤ 0.5. For U26G C29A C30G C31G C46U, the yeast fitness was ≤ 0.5. With U26G C29G C30A A36G the yeast fitness was ≤ 0.5. U26G C46G showed a yeast fitness of 0.807. For U26G C55G A65C, the yeast fitness was ≤ 0.5. In the case of U26G U32C A45G C46U U53G C66U A69U, the yeast fitness is reported as ≤ 0.5. With C27A A36G A42G the yeast fitness was ≤ 0.5. For C27A A36G C60G A70C, the yeast fitness was ≤ 0.5. With C27A A37C G41A C49U C60G the yeast fitness was ≤ 0.5. In the case of C27A A45C C46A G51A C60U G67C A70G, the yeast fitness is reported as ≤ 0.5. In the case of C27A A57U C60A, the yeast fitness is reported as ≤ 0.5. With C27A C29U A40G C61G the yeast fitness was ≤ 0.5. With C27A C31U A43G U54C C61U A65C the yeast fitness was ≤ 0.5. For C27A C55A C61U G68A A70G, the yeast fitness was ≤ 0.5. With C27A C60U A65C the yeast fitness was ≤ 0.5. In the case of C27A C60U C61G A65G, the yeast fitness is reported as 0.598. Work on C27A G38C yielded a yeast fitness of 0.609. With C27A G38C G51C A69U the yeast fitness was ≤ 0.5. In the case of C27A G38C U53C, the yeast fitness is reported as ≤ 0.5.
